Results deposited as PubChem BioAssay AID1159578 (Peter MacCallum Cancer Centre, 2015)
Test: 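Genome-wide hunt for genes controlling movement of lymphatic endothelial cells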 (primary screen). Cells: human lymphatic endothelial cells. Reagent: siRNA pool against human genes, 40 nM. Time to read-out: 48 h after transfection. Read-out: 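Cells stained with dye and imaged after a scratch; covered wound area and nuclei counted, duplicates averaged, migration set against mock wells and turned into a robust z-score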. Reading the numbers: migration robust z-score: higher = faster migration into the scratch; nuclei per well: higher = more cells in the well. Hit rule: 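Migration changed when robust z exceeds 2 or falls below -2 and mean nuclei number is at least 3300; otherwise not called changed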. Calls: active = migration changed; inactive = no migration change, or too few cells.
Shown is a random part of about 18,000 reagents tested. In the full data, about 1,030 (5.7%) are marked active. 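Inactive calls also include pools with fewer than 3300 nuclei, whose migration was not assessed.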 Raw values are not corrected between plates. Further read-outs or replicates are left out here. No sequences are given here.

For RGS17, the values are migration robust z-score -0.94; migration class with cell-count check migration z between -2 and 2; enough cells; nuclei per well, duplicate mean 5440; inactive.
After knock-down of SMC1B, the screen gave migration robust z-score -0.16; migration class with cell-count check migration z between -2 and 2; enough cells; nuclei per well, duplicate mean 7322; inactive.
KCNJ13 showed migration robust z-score -0.36; migration class with cell-count check migration z between -2 and 2; enough cells; nuclei per well, duplicate mean 3674; inactive.
Knock-down of SMCP came out at: migration robust z-score -0.07; migration class with cell-count check migration z between -2 and 2; enough cells; nuclei per well, duplicate mean 6726; inactive.
Against LAP3 the deposit lists migration robust z-score -1.22; migration class with cell-count check migration z between -2 and 2; enough cells; nuclei per well, duplicate mean 5492; inactive.
PKHD1L1 showed migration robust z-score -1.4; migration class with cell-count check migration z between -2 and 2; enough cells; nuclei per well, duplicate mean 5267; inactive.
Knock-down of PDE12 came out at: migration robust z-score 2.66; migration class with cell-count check migration z above 2; enough cells; nuclei per well, duplicate mean 6866; active.
MYADM showed migration robust z-score -0.98; migration class with cell-count check migration z between -2 and 2; enough cells; nuclei per well, duplicate mean 4688; inactive.
SLC13A3 scored migration robust z-score 0.64; migration class with cell-count check migration z between -2 and 2; enough cells; nuclei per well, duplicate mean 7016; inactive.
With knock-down of LRFN4, the screen gave migration robust z-score -2.58; migration class with cell-count check migration z below -2; enough cells; nuclei per well, duplicate mean 6150; active.
For IP6K1 the deposit lists migration robust z-score 0.08; migration class with cell-count check migration z between -2 and 2; enough cells; nuclei per well, duplicate mean 3842; inactive.
Against TLR10, the values are migration robust z-score -0.26; migration class with cell-count check migration z between -2 and 2; enough cells; nuclei per well, duplicate mean 5520; inactive.
Against SIDT2 the deposit lists migration robust z-score -0.85; migration class with cell-count check migration z between -2 and 2; enough cells; nuclei per well, duplicate mean 5418; inactive.
For TNFRSF11B, the entry reads migration robust z-score 0.88; migration class with cell-count check migration z between -2 and 2; enough cells; nuclei per well, duplicate mean 5638; inactive.
After knock-down of RAB14, the record shows migration robust z-score 0.71; migration class with cell-count check migration z between -2 and 2; enough cells; nuclei per well, duplicate mean 5705; inactive.
CHRAC1 scored migration robust z-score 0; migration class with cell-count check migration z between -2 and 2; enough cells; nuclei per well, duplicate mean 4505; inactive.
For WTIP the deposit lists migration robust z-score 0.36; migration class with cell-count check migration z between -2 and 2; enough cells; nuclei per well, duplicate mean 5694; inactive.
Knock-down of ADH7 resulted in: migration robust z-score -2.59; migration class with cell-count check under 3300 nuclei; migration not judged; nuclei per well, duplicate mean 2794; inactive.
Depletion of FBXL8 gave: migration robust z-score -1.77; migration class with cell-count check migration z between -2 and 2; enough cells; nuclei per well, duplicate mean 5417; inactive.
For ZHX2, the values are migration robust z-score -0.26; migration class with cell-count check migration z between -2 and 2; enough cells; nuclei per well, duplicate mean 4878; inactive.
GALNT14 scored migration robust z-score 0.47; migration class with cell-count check migration z between -2 and 2; enough cells; nuclei per well, duplicate mean 7006; inactive.

Entries above whose target name starts with L or l:
LAP3: migration robust z-score = -1.22; migration class with cell-count check = migration z between -2 and 2; enough cells; nuclei per well, duplicate mean = 5492; Outcome = inactive
LRFN4: migration robust z-score = -2.58; migration class with cell-count check = migration z below -2; enough cells; nuclei per well, duplicate mean = 6150; Outcome = active
